We go through 1 substance from paper PMC8282777.

Chains of the proteins cited; added tags and fusions are not shown.
UniProt P25490: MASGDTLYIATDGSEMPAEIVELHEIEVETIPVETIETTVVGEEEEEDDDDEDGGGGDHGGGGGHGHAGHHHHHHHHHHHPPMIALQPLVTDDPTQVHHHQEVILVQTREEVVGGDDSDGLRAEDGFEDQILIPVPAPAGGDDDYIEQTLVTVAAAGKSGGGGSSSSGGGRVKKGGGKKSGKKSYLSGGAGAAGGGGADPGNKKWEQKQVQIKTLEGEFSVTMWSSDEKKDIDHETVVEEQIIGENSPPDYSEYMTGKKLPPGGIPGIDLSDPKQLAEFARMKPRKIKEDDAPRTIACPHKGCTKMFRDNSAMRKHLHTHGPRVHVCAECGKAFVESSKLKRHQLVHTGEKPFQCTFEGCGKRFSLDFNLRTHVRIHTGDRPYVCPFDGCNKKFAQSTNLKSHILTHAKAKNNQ
UniProt Q9HAU4: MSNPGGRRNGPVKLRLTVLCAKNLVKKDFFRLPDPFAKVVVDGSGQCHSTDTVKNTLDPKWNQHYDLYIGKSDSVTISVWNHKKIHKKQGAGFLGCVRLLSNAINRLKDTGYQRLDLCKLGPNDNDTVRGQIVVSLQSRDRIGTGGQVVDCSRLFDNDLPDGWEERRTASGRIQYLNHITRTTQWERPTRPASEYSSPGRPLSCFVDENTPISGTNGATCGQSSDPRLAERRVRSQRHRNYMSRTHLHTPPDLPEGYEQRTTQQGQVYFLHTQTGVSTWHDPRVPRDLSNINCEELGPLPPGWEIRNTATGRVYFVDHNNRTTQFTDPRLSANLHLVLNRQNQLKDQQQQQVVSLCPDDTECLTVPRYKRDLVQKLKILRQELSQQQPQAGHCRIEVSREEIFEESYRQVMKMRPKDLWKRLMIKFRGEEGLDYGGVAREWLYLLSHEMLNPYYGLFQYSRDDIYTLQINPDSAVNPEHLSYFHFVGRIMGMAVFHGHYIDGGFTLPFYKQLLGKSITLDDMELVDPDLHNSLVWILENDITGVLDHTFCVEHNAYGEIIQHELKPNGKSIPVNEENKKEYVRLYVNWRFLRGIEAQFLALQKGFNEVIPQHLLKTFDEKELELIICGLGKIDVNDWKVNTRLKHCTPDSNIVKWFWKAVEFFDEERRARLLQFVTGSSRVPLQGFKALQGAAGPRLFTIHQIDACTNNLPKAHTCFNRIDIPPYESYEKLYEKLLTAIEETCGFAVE

Results are given in words; binding and its absence hold for the method and conditions named. Binding seen in cells or lysates may run through a third protein. Some results given as binding are weak or reduced against the parent protein; the word gives no strength.

This test has as its target Yin Yang 1 (YY1) (human (endogenous in ARPE-19)) (UniProt P25490). Put plainly: co-IP; ARPE-19 cells (1 x 10^7) lysed, incubated with anti-YY1 (ab227269) or IgG overnight, Protein A/G-agarose beads 4 h; YY1 and Smurf2 detected by western blotting. Background: A western blot detects proteins with antibodies after separation by electrophoresis.

Take “Smad ubiquitin regulatory factor 2 (Smurf2) (from UniProt Q9HAU4 1-748)”: the binding entry is reported as “binds”.
